This note sets out measurements from the RNAGym collection of RNA variant scans (doi:10.1126/science.aae0568).

Variants at the floor of the assay are shown more often than the library holds them.

First the molecules themselves.
B1: tRNA (parent)
chain: GUUCCGUUGGCGUAAUGGUAACGCGUCUCCCUCCUAAGGAGAAGACUGCGGGUUCGAGUCCCGUACGGAACG

In the data set the parent is B1. The experiment in a line: yeast fitness relative to wild type (ratio to wild type); higher = fitter; tRNA-Arg(CCU), competitive growth, 37 C, YPD. Put shortly: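 Genotype frequency changes were the basis for Darwinian fitness relative to wild type. The frequencies came from 100-nucleotide paired-end sequencing of gene amplicons from the start population and each end population of pooled yeast strains with tRNA-Arg(CCU) gene variants at the native locus. Competition ran in YPD at 37°C for 24 hours in six replicates, genotypes needed ≥ 100 starting reads, and estimates < 0.5 were set to 0.5.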
In the case of U2G C11G C24U, the yeast fitness was ≤ 0.5.

For the variant C11U G44C, the yeast fitness turned out to be 0.974.

Regarding C5G C30G A36G C62G, the yeast fitness is ≤ 0.5.

As for U26G U28A C29A A70C, the yeast fitness was ≤ 0.5.

C55A A57C G67C G68A: the yeast fitness was ≤ 0.5.

G18A U32C A42U A43G A65C: the yeast fitness is ≤ 0.5.

With C31A C33G A36U C60U U64G A65U A69C, the yeast fitness is ≤ 0.5.

Regarding U2C C24U A70C, the yeast fitness turned out to be 0.708.

Regarding C29A A43G U54A C61A, the yeast fitness is ≤ 0.5.

Turning to C27G A42U, the yeast fitness amounted to 0.721.

For the variant U3A C11U U13C C31A A42G G67C, the yeast fitness is ≤ 0.5.

In the case of U19C A20C A21U C55U, the yeast fitness was ≤ 0.5.

Regarding G10C C30G C60A, the yeast fitness was ≤ 0.5.

Consider A45C C55U A57C, for which the yeast fitness was ≤ 0.5.

On to U7A G10A C33A A36C G51A, for which the yeast fitness was ≤ 0.5.

C29G C33U A36G C61U A69C: the yeast fitness is ≤ 0.5.

As for C4G G41A A45U G56C, the yeast fitness is ≤ 0.5.

As to G6A C24U C61G, the yeast fitness was ≤ 0.5.

As for A45U U53G C60G C61A C66U, the yeast fitness was ≤ 0.5.

Consider G10A A14U C31A C46A A57C, for which the yeast fitness was ≤ 0.5.

U2G A14C C30U: the yeast fitness was ≤ 0.5.

As for U2A C24U A37U, the yeast fitness was ≤ 0.5.

For G6A G48C G58A, the yeast fitness was found to be 0.57.

As for C30G C31G A43G A69U, the yeast fitness is ≤ 0.5.

On to G23C C29G A43U G50A G68C, for which the yeast fitness was ≤ 0.5.

For A40G A42C C55U C60A, the yeast fitness is ≤ 0.5.

With A21G C29U A36U A43U, the yeast fitness is ≤ 0.5.

In the case of C4G G17C C33A G56C A70C, the yeast fitness was determined as 0.542.

As for C11U C22A C29G C33U A43G U53C C61A G68A, the yeast fitness is ≤ 0.5.

As to U7C C30U C33A A40U A57C, the yeast fitness is ≤ 0.5.

As for G6A A36U A37G C66G, the yeast fitness was ≤ 0.5.

Turning to A14G A15C C30U, the yeast fitness is ≤ 0.5.

With G10A C11U C30U, the yeast fitness is ≤ 0.5.

As to G9A G12U A14U U53A G67A, the yeast fitness was ≤ 0.5.

For the variant U19G C24A C34G, the yeast fitness was 0.75.

On to A14G C31U C33U A45C G48A, for which the yeast fitness stood at 0.626.

As for A14G U59A, the yeast fitness worked out at 0.894.

In the case of C4A G10C C29G A65U, the yeast fitness was ≤ 0.5.

Regarding C29U C30U A43U A65U, the yeast fitness was determined as 0.588.

With A20C A40G U47G, the yeast fitness is ≤ 0.5.

As for C24A A40U A70U, the yeast fitness was ≤ 0.5.

G23A C31U G48C C55G: the yeast fitness is ≤ 0.5.

Turning to A36U A57G, the yeast fitness was determined as 0.582.

For C27U C31G A69C, the yeast fitness is 0.604.

In the case of G6A C11G A21U, the yeast fitness is ≤ 0.5.

On to C4G A40U A45U C62U, for which the yeast fitness is ≤ 0.5.

With U8A A20G U26C A40C G63A, the yeast fitness is ≤ 0.5.

With G12A A40C U54A, the yeast fitness was ≤ 0.5.

For A20C C34U G52A, the yeast fitness worked out at 0.574.

Take C29U U32A G67A: the yeast fitness was ≤ 0.5.

With C5A C55A A69C A70U, the yeast fitness was ≤ 0.5.

Turning to C4U G12C A37U C49G, the yeast fitness is ≤ 0.5.

As to C22U C30U C33U A45C, the yeast fitness turned out to be 0.548.

As to C62U G63A U64A, the yeast fitness was ≤ 0.5.

For the variant A21G A42G U54A, the yeast fitness was ≤ 0.5.

With U28G U32A G38C G68A, the yeast fitness was ≤ 0.5.

For the variant G17A C30U A40U A57U, the yeast fitness was ≤ 0.5.

For C4G G23A C27U C46U, the yeast fitness was ≤ 0.5.

Consider G25C C66A, for which the yeast fitness turned out to be 0.677.

For U2A C5U C29G A40C A42C, the yeast fitness is ≤ 0.5.

As to U3C G12C G41A A42C, the yeast fitness was ≤ 0.5.

Take A20U C29G A43U U47A G68C: the yeast fitness was ≤ 0.5.

C30G C46U G48A U54G: the yeast fitness is ≤ 0.5.

For the variant C11A C22G C30G, the yeast fitness is ≤ 0.5.

As for U3C A14G C30U A45C C46G, the yeast fitness was ≤ 0.5.

Take G6A A15G U32G A45C G68A: the yeast fitness is ≤ 0.5.

On to U2A U8G C22U U32C C33G G38A, for which the yeast fitness is ≤ 0.5.

For A37G A40U G48C G58A A70U, the yeast fitness was ≤ 0.5.

For the variant G48C G50U G67C A70U, the yeast fitness is ≤ 0.5.

Consider G25A C29U A57U C62A, for which the yeast fitness was ≤ 0.5.

As for U3C A21C C22G G38C A57C, the yeast fitness was ≤ 0.5.

As for U7C G10A C30G A37C G52A, the yeast fitness is ≤ 0.5.

For U13C A42G A57U U59A A69G, the yeast fitness was ≤ 0.5.

As for C34G G52C A70U, the yeast fitness amounted to 0.542.

Regarding G12A C22G C27A, the yeast fitness came to 0.663.

G17A A42G G52C: the yeast fitness was ≤ 0.5.

Regarding C11G C22U C27U U28A G52A C55U, the yeast fitness was ≤ 0.5.

Regarding C5U C22A U28A G52C, the yeast fitness was ≤ 0.5.

With C5U C22U C24A C55A A65G, the yeast fitness is ≤ 0.5.

For U3A C24U U35C G39A C55A, the yeast fitness was ≤ 0.5.

With C31G A70U, the yeast fitness was 0.938.

With G6C C34U G52C C66U, the yeast fitness was ≤ 0.5.

On to U16A G23C A36G G51C C55G, for which the yeast fitness is ≤ 0.5.

Take G39C C60G C62A: the yeast fitness is ≤ 0.5.

For A15G U26G C30U C55U G67C, the yeast fitness is ≤ 0.5.

Turning to A42C A57G C60G, the yeast fitness was ≤ 0.5.

A21C G23C C30U G52C A65C: the yeast fitness was ≤ 0.5.

Consider A20U U28C G44A C46U G48A, for which the yeast fitness is ≤ 0.5.

Turning to A14U A45C C49U A65C, the yeast fitness was ≤ 0.5.

For C27G C33A A40U C46U, the yeast fitness was ≤ 0.5.

With U2A G9C U13A A15G C33A A37U G50C A69C, the yeast fitness was ≤ 0.5.

Consider C4G A14U C60A U64C, for which the yeast fitness is ≤ 0.5.

Turning to A15G A21G G41A A65C, the yeast fitness was ≤ 0.5.

With A14G U28G C29U C61U, the yeast fitness is ≤ 0.5.

Turning to C4A C30G A65G, the yeast fitness was ≤ 0.5.

For U16A A21C U53A, the yeast fitness is ≤ 0.5.

C5G C11U C31G C62A: the yeast fitness was ≤ 0.5.

As for G10A G50C U54C, the yeast fitness was ≤ 0.5.

In the case of C31U C34U G58C C60U C62U G63C, the yeast fitness is ≤ 0.5.

C11G U26C C29U C34U C62A C66U: the yeast fitness is ≤ 0.5.

Turning to U2C G12A A36U G67C, the yeast fitness is ≤ 0.5.

Take U7G G52A C55U G67A: the yeast fitness is ≤ 0.5.

With C5A A14G C24A A69U, the yeast fitness was ≤ 0.5.

Take C4G G56C U59A A65G: the yeast fitness was ≤ 0.5.

Take A37U C49A C66U: the yeast fitness was ≤ 0.5.

For U3A U7G A14U G25A G41C G50C, the yeast fitness is ≤ 0.5.

With U3A G6C U35A G50C A65C, the yeast fitness was ≤ 0.5.

In the case of A21U C55A A65C, the yeast fitness was ≤ 0.5.

In the case of C27A C29A C33A, the yeast fitness was ≤ 0.5.

Consider U19A U26C C49G C66G, for which the yeast fitness was ≤ 0.5.

As for C27G G39A C46U C55A C66A, the yeast fitness was ≤ 0.5.

In the case of C31G A42C C55U G68A, the yeast fitness is 0.542.

For the variant G18C G63A, the yeast fitness turned out to be 0.535.

For the variant G9C U19A A20G C27U, the yeast fitness is ≤ 0.5.

G23A C49U G58A: the yeast fitness is ≤ 0.5.

With C5U C31U, the yeast fitness was 1.03.

On to U2A G6C U16C C24U C46G C49A C61U, for which the yeast fitness was ≤ 0.5.

Take U32C C46G G52C G68C: the yeast fitness is ≤ 0.5.

In the case of C5A C11G G41C G48C, the yeast fitness was ≤ 0.5.

On to U8G C11A A36U G51A G56A C62G, for which the yeast fitness was ≤ 0.5.

U7G A14C A20G C22U C49G G56C: the yeast fitness is ≤ 0.5.

Regarding U3C C55U A57C G67A, the yeast fitness is ≤ 0.5.

In the case of C11U C46G, the yeast fitness came to 0.986.

For C5G G41A G50C C55U A57G A70U, the yeast fitness is ≤ 0.5.

Take C5G A15C C46A: the yeast fitness is ≤ 0.5.

As to A14U A15C A65U, the yeast fitness is ≤ 0.5.

Consider C11A G17A U35G U59C A70U, for which the yeast fitness is ≤ 0.5.

C4A G6A G25A C29G A57G: the yeast fitness was ≤ 0.5.

With C33U A42C C61U, the yeast fitness was ≤ 0.5.

On to G12C G18C A70U, for which the yeast fitness was ≤ 0.5.

Take A21C C27U G51A U59C: the yeast fitness was ≤ 0.5.

On to G25A U28A A43U G58A C61U A70G, for which the yeast fitness is ≤ 0.5.

For the variant C5U C11G C22U C30G G58C C60G, the yeast fitness was ≤ 0.5.

As to U35G A40G U54G, the yeast fitness was ≤ 0.5.

Regarding C27G C55U A65U A70G, the yeast fitness was ≤ 0.5.

As to U26C U35C C49A, the yeast fitness was ≤ 0.5.

On to U16C G18A U35C U47C G50C, for which the yeast fitness is ≤ 0.5.

In the case of G56A C60G C61U, the yeast fitness is ≤ 0.5.

In the case of G6A G10C A20G C22U G38C C61G, the yeast fitness was ≤ 0.5.

Turning to A15C A37C G50A U59C, the yeast fitness was ≤ 0.5.

Turning to C5U G58C U59C A70G, the yeast fitness was ≤ 0.5.

Turning to U2C G17A U19C G50C, the yeast fitness was ≤ 0.5.

G10C U28C G44C C55G A69U: the yeast fitness was ≤ 0.5.

Regarding A15U A20C G48C U53A C61U, the yeast fitness was ≤ 0.5.

For the variant U13G U32A G48C C61U A69G, the yeast fitness is ≤ 0.5.

On to C11G C22U C49U U53C G68C, for which the yeast fitness is ≤ 0.5.

Take C34U A43G U54C C66U: the yeast fitness is ≤ 0.5.

In the case of C11U A21G A70C, the yeast fitness amounted to 0.818.

Consider A36G G68C, for which the yeast fitness came to 0.779.

On to C24U A70G, for which the yeast fitness came out at 0.887.

As to G9C G17C C62A, the yeast fitness is ≤ 0.5.

With U26C C33G G39A G44A, the yeast fitness is ≤ 0.5.

Turning to G10C C49G G56C A70U, the yeast fitness is ≤ 0.5.

C5U A45C C49G A69C: the yeast fitness is ≤ 0.5.

Consider C5U A20C C29U C34A C46A G50A A57U, for which the yeast fitness was ≤ 0.5.

As to C46G G48A G68A, the yeast fitness was ≤ 0.5.

Take A21C C24G U32A A42C C66A: the yeast fitness is ≤ 0.5.

With G38C A40U C60U U64A C66A G68A A69G, the yeast fitness is ≤ 0.5.

As to U32G C33A C62G C66U, the yeast fitness is ≤ 0.5.

For the variant U7A U16C A21U U26A U47C A70G, the yeast fitness was ≤ 0.5.

As to G23C A37C C46G, the yeast fitness was ≤ 0.5.

For A14U U26C A43C C46A G67A, the yeast fitness was ≤ 0.5.

Turning to C11U C27G C31U C34G A37G, the yeast fitness was ≤ 0.5.

In the case of U3G G6A U64C C66U, the yeast fitness was ≤ 0.5.

A21U U32G G48C C49U C62G G68C: the yeast fitness was ≤ 0.5.

Regarding C11U G12A G18C C46U C66U, the yeast fitness is ≤ 0.5.

In the case of G17C G25C C29G A36U G39A C46U C55U, the yeast fitness was ≤ 0.5.
